Measured values as given in patent US20140243356A1.
No constants are given. Whether binding was seen depends on the method and setting. Binding seen in cells or lysates may run through a third protein. Some binding calls cover weakened binding; strength is not graded here.

Sequences of proteins named here, by UniProt entry; tags and fusion partners are left off. Residues count along the entry.
UniProt P06730, residues 2-217: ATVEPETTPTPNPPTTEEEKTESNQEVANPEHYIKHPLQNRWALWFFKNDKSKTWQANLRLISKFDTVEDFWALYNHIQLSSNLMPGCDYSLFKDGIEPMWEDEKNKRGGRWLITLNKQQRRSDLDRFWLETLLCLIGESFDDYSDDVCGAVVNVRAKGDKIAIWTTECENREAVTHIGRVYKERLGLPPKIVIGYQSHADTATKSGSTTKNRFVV

Molecular target: eIF4E (human (endogenous in PC3 human prostate cancer cells)) (UniProt P06730)
Assay: cap-binding assay (m7GTP-sepharose pull-down from PC3-4EBP1^M lysate, western blot)

- binding: binds
B1: endogenous 4EBP2 (protein, UniProt Q13542 1-120, looked up)
chain: MSSSAGSGHQPSQSRAIPTRTVAISDAAQLPHDYCTTPGGTLFSTTPGGTRIIYDRKFLLDRRNSPMAQTPPCHLPNIPGVTSPGTLIEDSKVEVNNLNNLNNHDRKHAVGDDAQFEMDI
